Experimental findings from doi:10.1101/488049 are described below.

For assay [1], the target named is T1, KIF1C-BioID2-HA (KIF1C full length) (human) (UniProt O43896).
T1 sequence: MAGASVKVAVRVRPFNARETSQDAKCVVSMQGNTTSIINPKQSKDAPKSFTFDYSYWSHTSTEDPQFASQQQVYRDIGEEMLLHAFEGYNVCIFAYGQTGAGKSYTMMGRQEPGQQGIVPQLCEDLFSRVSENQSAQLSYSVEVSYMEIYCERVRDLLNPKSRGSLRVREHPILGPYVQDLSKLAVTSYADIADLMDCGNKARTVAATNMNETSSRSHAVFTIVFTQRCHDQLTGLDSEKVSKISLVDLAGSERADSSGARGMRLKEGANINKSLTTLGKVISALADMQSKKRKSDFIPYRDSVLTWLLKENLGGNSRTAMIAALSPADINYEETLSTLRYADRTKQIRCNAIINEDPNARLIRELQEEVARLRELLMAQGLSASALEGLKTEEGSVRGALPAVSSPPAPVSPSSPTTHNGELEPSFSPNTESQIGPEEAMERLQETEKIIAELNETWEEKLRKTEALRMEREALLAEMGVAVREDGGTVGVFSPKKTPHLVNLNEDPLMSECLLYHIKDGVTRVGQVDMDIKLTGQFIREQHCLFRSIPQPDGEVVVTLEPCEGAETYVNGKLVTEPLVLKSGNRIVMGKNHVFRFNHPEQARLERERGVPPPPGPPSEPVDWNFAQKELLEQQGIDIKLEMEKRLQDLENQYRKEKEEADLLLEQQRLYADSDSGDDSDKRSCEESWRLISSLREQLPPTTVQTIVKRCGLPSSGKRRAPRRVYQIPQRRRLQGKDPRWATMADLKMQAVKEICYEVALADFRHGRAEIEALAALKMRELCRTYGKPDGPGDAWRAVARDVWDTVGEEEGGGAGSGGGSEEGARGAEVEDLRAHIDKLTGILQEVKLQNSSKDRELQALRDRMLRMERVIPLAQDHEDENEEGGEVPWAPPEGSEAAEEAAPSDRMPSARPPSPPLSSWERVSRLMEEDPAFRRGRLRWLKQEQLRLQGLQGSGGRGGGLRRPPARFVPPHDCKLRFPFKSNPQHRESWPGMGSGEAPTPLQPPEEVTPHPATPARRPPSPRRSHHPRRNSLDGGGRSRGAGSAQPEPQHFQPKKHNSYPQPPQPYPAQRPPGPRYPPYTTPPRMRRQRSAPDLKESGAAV
The assay can be described thus: proximity labelling.

The target in assay [2] is T2, KIF1CΔ623-825-BioID2-HA (human) (UniProt O43896).
T2 sequence: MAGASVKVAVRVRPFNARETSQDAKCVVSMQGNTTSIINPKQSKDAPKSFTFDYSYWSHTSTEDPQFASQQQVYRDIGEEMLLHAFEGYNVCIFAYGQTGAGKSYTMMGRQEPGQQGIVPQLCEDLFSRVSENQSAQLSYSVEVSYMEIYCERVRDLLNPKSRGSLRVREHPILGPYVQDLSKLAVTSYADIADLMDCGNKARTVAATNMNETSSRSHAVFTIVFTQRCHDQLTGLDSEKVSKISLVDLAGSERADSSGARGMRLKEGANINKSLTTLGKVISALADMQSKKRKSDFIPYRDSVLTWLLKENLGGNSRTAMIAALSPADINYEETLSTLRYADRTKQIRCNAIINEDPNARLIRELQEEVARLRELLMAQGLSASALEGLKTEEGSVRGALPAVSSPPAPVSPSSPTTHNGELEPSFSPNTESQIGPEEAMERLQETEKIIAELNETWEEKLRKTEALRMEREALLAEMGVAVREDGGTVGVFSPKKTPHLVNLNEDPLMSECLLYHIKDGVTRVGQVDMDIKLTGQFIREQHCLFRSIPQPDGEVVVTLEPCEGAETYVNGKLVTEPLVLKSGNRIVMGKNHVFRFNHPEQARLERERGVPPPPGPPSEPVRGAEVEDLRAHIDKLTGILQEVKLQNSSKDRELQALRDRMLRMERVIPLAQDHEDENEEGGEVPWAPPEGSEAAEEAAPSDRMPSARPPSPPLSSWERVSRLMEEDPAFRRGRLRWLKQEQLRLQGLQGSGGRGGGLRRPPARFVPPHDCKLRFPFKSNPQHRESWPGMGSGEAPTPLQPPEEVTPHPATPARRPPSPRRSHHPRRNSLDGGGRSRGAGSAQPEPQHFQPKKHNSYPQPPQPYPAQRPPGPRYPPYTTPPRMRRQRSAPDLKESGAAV
Put plainly: proximity labelling.

Results are given in words; binding and its absence hold for the method and conditions named. Binding seen in cells or lysates may run through a third protein. A yes stands for co-enrichment or nearness to the bait. Other partners may have been found. For some assays here: A no says only that the protein was not detected with the bait. Where a sequence is shown, tags or fusion partners need not be part of it.

B1: Hook3 (endogenous, RPE1 cells) (protein, UniProt Q86VS8 1-718)
chain: MFSVESLERAELCESLLTWIQTFNVDAPCQTVEDLTNGVVMAQVLQKIDPAYFDENWLNRIKTEVGDNWRLKISNLKKILKGILDYNHEILGQQINDFTLPDVNLIGEHSDAAELGRMLQLILGCAVNCEQKQEYIQAIMMMEESVQHVVMTAIQELMSKESPVSAGNDAYVDLDRQLKKTTEELNEALSAKEEIAQRCHELDMQVAALQEEKSSLLAENQVLMERLNQSDSIEDPNSPAGRRHLQLQTQLEQLQEETFRLEAAKDDYRIRCEELEKEISELRQQNDELTTLADEAQSLKDEIDVLRHSSDKVSKLEGQVESYKKKLEDLGDLRRQVKLLEEKNTMYMQNTVSLEEELRKANAARSQLETYKRQVVELQNRLSEESKKADKLDFEYKRLKEKVDSLQKEKDRLRTERDSLKETIEELRCVQAQEGQLTTQGLMPLGSQESSDSLAAEIVTPEIREKLIRLQHENKMLKLNQEGSDNEKIALLQSLLDDANLRKNELETENRLVNQRLLEVQSQVEELQKSLQDQGSKAEDSVLLKKKLEEHLEKLHEANNELQKKRAIIEDLEPRFNNSSLKIEELQEALRKKEEEMKQMEERYKKYLEKAKSVIRTLDPKQNQGAAPEIQALKNQLQERDRLFHSLEKEYEKTKSQREMEEKYIVSAWYNMGMTLHKKAAEDRLASTGSGQSFLARQRQATSSRRSYPGHVQPATAR
modifications: biotinylated by BioID2 in cells
For the molecule B1, the binding result in assay [1] was “binds”; in assay [2] it was “no binding”.
